The results in this text go back to paper PMC5745004.

Chains of the proteins cited; added tags and fusions are not shown. Lines headed by an entry give the natural chain unless they say otherwise; changes in a name come on top.
UniProt P23321: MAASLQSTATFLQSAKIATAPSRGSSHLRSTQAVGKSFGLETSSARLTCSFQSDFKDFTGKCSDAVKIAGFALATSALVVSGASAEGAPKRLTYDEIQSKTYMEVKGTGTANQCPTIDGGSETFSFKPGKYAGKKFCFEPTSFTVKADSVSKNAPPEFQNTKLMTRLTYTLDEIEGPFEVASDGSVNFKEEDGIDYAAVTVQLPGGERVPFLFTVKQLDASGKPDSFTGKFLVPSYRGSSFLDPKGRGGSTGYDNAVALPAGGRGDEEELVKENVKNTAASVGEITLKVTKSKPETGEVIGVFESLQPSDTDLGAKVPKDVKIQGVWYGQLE

These are yes or no findings as the source states them, for the method shown. Binding seen in cells or lysates may run through a third protein. Here binding means that the protein was enriched with, or labelled near, the bait; the list need not be complete.

This test deals with PsbO1GFP (PsbO1^1-332GFP, full-length PsbO1 fused to GFP) expressed in Arabidopsis (Arabidopsis) (UniProt P23321). As to the kind of experiment: affinity purification with mass spectrometry; GFP-trap purification of PsbO1GFP from Arabidopsis seedling lysate, bound proteins analysed by LC-MS/MS.

B1: PsbS/CP22, endogenous in Arabidopsis seedlings (protein, UniProt Q9XF91 60-265)
chain: AAPKKVEKPKSKVEDGIFGTSGGIGFTKANELFVGRVAMIGFAASLLGEALTGKGILAQLNLETGIPIYEAEPLLLFFILFTLLGAIGALGDRGKFVDDPPTGLEKAVIPPGKNVRSALGLKEQGPLFGFTKANELFVGRLAQLGIAFSLIGEIITGKGALAQLNIETGIPIQDIEPLVLLNVAFFFFAAINPGNGKFITDDGEES
Take B1: the binding result is “binds”.

B2: HSP90C, endogenous in Arabidopsis seedlings (protein, UniProt Q9SIF2 61-780)
chain: CDAAVAEKETTEEGSGEKFEYQAEVSRLLDLIVHSLYSHKEVFLRELVSNASDALDKLRFLSVTEPSLLGDGGDLEIRIKPDPDNGTITITDTGIGMTKEELIDCLGTIAQSGTSKFLKALKENKDLGADNGLIGQFGVGFYSAFLVAEKVVVSTKSPKSDKQYVWESVADSSSYLIREETDPDNILRRGTQITLYLREDDKYEFAESTRIKNLVKNYSQFVGFPIYTWQEKSRTIEVEEDEPVKEGEEGEPKKKKTTKTEKYWDWELANETKPLWMRNSKEVEKGEYNEFYKKAFNEFLDPLAHTHFTTEGEVEFRSILYIPGMGPLNNEDVTNPKTKNIRLYVKRVFISDDFDGELFPRYLSFVKGVVDSDDLPLNVSREILQESRIVRIMRKRLIRKTFDMIQEISESENKEDYKKFWENFGRFLKLGCIEDTGNHKRITPLLRFFSSKNEEELTSLDDYIENMGENQKAIYYLATDSLKSAKSAPFLEKLIQKDIEVLYLVEPIDEVAIQNLQTYKEKKFVDISKEDLELGDEDEVKDREAKQEFNLLCDWIKQQLGDKVAKVQVSNRLSSSPCVLVSGKFGWSANMERLMKAQALGDTSSLEFMRGRRILEINPDHPIIKDLNAACKNAPESTEATRVVDLLYDTAIISSGFTPDSPAELGNKIYEMMAMAVGGRWGRVEEEEESSTVNEGDDKSGETEVVEPSEVRAESDPWQD
In the case of B2, the binding result is recorded as “binds”.
